Article PMC10163288
The list shows a part of the results.

B1: il10ra_site1_sap_20_mot_HHH_b2_01205_000000166_0001_1_19_H_._HHH_b1_02466_0001_0000300019_0000002_0_0001 (protein)
chain: SSSSSEFVEMTFRFAEWLAREGDDRAARRFLQAAEDIARRDNDPELEELVEELEKLLRELLSSSS
B2: il10ra_site1_sap_22_mot_HHH_b1_00999_000000080_0001_41_55_H_._HHH_b1_02412_af2_0001_0000600059_0000001_0_0001 (protein)
chain: SSSSEEWFERFKELIERITQALQEGDEEKVEKLLKEIEELAEEANNPVLRFVVELLEEALNSSSS
B3: il10ra_site1_normal_mot_HHH_b1_05587_000000266_0001_24_40_H_._HHH_b2_03370_0001_0000200005_0000001_0_af2pred_0001 (protein)
chain: SSSSSDEEERLRLAALDLEVNLKAGNEEAAKRVAKALLFLARQANDEEAEREAEEVLRELSSSSS
B4: il10ra_site1_normal_mot_HHH_b1_07380_000000129_0001_1_20_H_._HHH_b2_05268_0001_0000100004_0000001_0 (protein)
chain: SSSSTEESRELYELSREALELLAEGDPEEAREVVEEAREIAEEAGNFNFLFAIEHLLQDINSSSS
B5: il10ra_site1_normal_mot_HHH_b1_05326_000000242_0001_1_20_H_._HHH_b2_05780_af2_0001_0000300018_0000002_0 (protein)
chain: SSSSDERERALEISVHAFRALLRGNPEEAERLLEEALELAERLNDERLARLIEELLKVIGSSSSS
B6: il10ra_site1_sap_19_mot_2fa031a62b9321f410fa37cb4b35ac9e_0001_af2_000000160_0001_1_14_H_._HHH_b2_08251_af2_0001_0000200005_0000002_0_0001 (protein)
chain: SSSSSDQEEAVELSLEAFRLALRGDPEEARRVLEEALELAEEAGDERMAKVIRDMLRALSSSSSS
B7: il10ra_site1_sap_21_mot_HHH_b2_08172_af2_000000094_0001_41_56_H_._d0e8961964c3861271c3cee42b2d364a_0001_1_0001_0000200014_0000001_0_0001 (protein)
chain: SSSSDAHDEIYELLRRAIELAKEGNPEEAQELLKEAKELAEEQGNEAMRYIIESVEEYVNSSSSS
B8: il10ra_site1_normal_mot_HHH_b1_04771_000000013_0001_40_56_H_._HHH_b1_02816_af2_0001_0000100001_0000001_0 (protein)
chain: SSSSDEEQRVVELSTEAFRLALRGNPEEAREVLEEAKELAEELGDERLLKMVEDLLQALESSSSS
B9: il10ra_site1_normal_mot_HHH_b2_06230_000000269_0001_23_39_H_._HHH_b1_07932_af2_0001_0000100001_0000002_0 (protein)
chain: SSSSDEEEIEKLLEELREALERGDEELFTRILDRVMRLIIELGDRELAEELQHLFRLVSRLSSSS
B10: il10ra_site1_sap_19_mot_HHH_b1_06415_af2_000000162_0001_43_56_H_._HHH_b1_05104_af2_0001_0000500031_0000001_0_0001_af2pred_0001 (protein)
chain: SSSSSRIEELLKRLLRAIERAIELGDEETARLAIRLAEKLAKEHNNEEILEELERLKEEISSSSS
B11: il10ra_site1_normal_mot_HHH_b2_04680_000000215_0001_1_16_H_._HHH_b1_07510_0001_0000500033_0000001_0 (protein)
chain: SSSSSSEELREAYRLIREAFEIEDPEEARKVVEEALELAEEANNEVFAFSIRHLLRDLRSSSSSS
B12: il10ra_site1_normal_mot_HHH_b2_05323_000000159_0001_1_18_H_._HHH_b2_06969_0001_0000200011_0000002_0 (protein)
chain: SSSDENQRALELSLEAFRLALRGNPEEAEELLREALELAEEGGNEQLFRTIEELLRALERGSSSS
B13: il10ra_site1_sap_14_mot_b26a303360aa2756ef5b79665ce52f45_0001_000000179_0001_1_11_H_._HHH_b1_02861_af2_0001_0000200013_0000002_0_0001 (protein)
chain: SSSSDEEYREEVERLLEEVERIDNPDEAYRLLKEAIELAAELGDQELFRLIMEVIREWLNSSSSS
B14: il10ra_site1_sap_14_mot_HHH_b2_02337_000000026_0001_38_52_H_._HHH_b2_04470_0001_0000100009_0000001_0_0001 (protein)
chain: SSSSSSREEVLRLSQEAFHLLLRGDPEEAKEVLEEARELAEELGDERLLKVIRDLLKVIDSSSSS
B15: il10ra_site1_sap_19_mot_e1dd4851c59bc1cdde016f988f6856bd_0001_1_000000200_0001_16_31_H_._HHH_b2_03133_0001_0000700045_0000002_0_0001 (protein)
chain: SSSSDVAQRIAELLRRAVELLNEGNPEEAEELVEEALELAQENNNQLLAHNAEFVLRDVRSSSSS
B16: il10ra_site1_sap_16_mot_HHH_b2_00943_af2_000000149_0001_1_17_H_._HHH_b1_01109_af2_0001_0000300014_0000001_0_0001 (protein)
chain: SSSSDLEELVKAALRLAEQAAKWGDPRAARLLLEALEELLERENNPELLEEVERLLEELNSSSSS
B17: il10ra_site1_sap_21_mot_HHH_b2_02463_af2_000000222_0001_1_19_H_._HHH_b1_01285_0001_0000200013_0000001_0_0001 (protein)
chain: SSSSDEANQEALELVVEAVRLALRGNPEEAKEVLEEARELAREGNNERLVKMIEDMLRALDSSSS
B18: il10ra_site1_normal_mot_HHH_b2_03039_af2_000000183_0001_1_19_H_._HHH_b2_04021_0001_0000200019_0000001_0 (protein)
chain: SSSSQEEELSEFLRRLLRELLERGDEEFLESLLRAAEESAKALNDEELEEEVEEIERELKSSSSS
B19: il10ra_site1_sap_25_mot_HHH_b1_01849_000000247_0001_21_38_H_._HHH_b1_06582_0001_0000100008_0000001_0_0001 (protein)
chain: SSTVEELAEEAQKILEELAELNPENRWAARFWAHILRVAVELNNEEHVESVARAVRALEEALSSS

These binders were tested against il10ra, Q13651 (assay: yeast display titration).
For B1, the “apparent Kd” value was “inactive: no binding seen”. For B2, the “apparent Kd” value was “inactive: no binding seen”. With B3 the “apparent Kd” value was “inactive: no binding seen”. For B4, the “apparent Kd” value was “inactive: no binding seen”. B5 was tested, and the “apparent Kd” value was “inactive: no binding seen”. With B6 the “apparent Kd” value was “inactive: no binding seen”. In the case of B7, the “apparent Kd” value is reported as “inactive: no binding seen”. With B8 the “apparent Kd” value was “inactive: no binding seen”. For B9, the “apparent Kd” value was “inactive: no binding seen”. In the case of B10, the “apparent Kd” value is reported as “inactive: no binding seen”. In the case of B11, the “apparent Kd” value is reported as “inactive: no binding seen”. B12 was tested, and the “apparent Kd” value was “inactive: no binding seen”. For B13, the “apparent Kd” value was “inactive: no binding seen”. With B14 the “apparent Kd” value was “inactive: no binding seen”. For B15, the “apparent Kd” value was “inactive: no binding seen”. B16 was tested, and the “apparent Kd” value was “inactive: no binding seen”. In the case of B17, the “apparent Kd” value is reported as “inactive: no binding seen”. B18 was tested, and the “apparent Kd” value was “inactive: no binding seen”. For B19, the “apparent Kd” value was “inactive: no binding seen”.
